Source: publication PMC11112778
No constants are given. Whether binding was seen depends on the method and setting. In cells and extracts the contact can be indirect. Some entries that bind do so weakly or less than the wild type.

Sequences of proteins named here, by UniProt entry; tags and fusion partners are left off.
UniProt P19474: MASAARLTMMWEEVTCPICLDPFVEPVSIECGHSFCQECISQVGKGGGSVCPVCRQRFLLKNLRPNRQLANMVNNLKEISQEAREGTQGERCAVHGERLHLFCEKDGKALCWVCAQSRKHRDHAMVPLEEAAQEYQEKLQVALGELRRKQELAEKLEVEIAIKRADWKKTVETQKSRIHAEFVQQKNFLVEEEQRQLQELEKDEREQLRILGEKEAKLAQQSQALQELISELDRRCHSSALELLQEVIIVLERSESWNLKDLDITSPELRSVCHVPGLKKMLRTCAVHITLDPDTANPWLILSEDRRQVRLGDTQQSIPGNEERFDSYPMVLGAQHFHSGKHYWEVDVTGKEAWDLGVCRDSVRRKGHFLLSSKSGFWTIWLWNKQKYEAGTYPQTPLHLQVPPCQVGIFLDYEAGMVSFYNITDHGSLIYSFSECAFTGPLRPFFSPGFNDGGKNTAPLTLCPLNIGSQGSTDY

Target: T1, NIMA-related kinase 2 (human (endogenous in ESCC cells)) (UniProt P51955)
T1 sequence: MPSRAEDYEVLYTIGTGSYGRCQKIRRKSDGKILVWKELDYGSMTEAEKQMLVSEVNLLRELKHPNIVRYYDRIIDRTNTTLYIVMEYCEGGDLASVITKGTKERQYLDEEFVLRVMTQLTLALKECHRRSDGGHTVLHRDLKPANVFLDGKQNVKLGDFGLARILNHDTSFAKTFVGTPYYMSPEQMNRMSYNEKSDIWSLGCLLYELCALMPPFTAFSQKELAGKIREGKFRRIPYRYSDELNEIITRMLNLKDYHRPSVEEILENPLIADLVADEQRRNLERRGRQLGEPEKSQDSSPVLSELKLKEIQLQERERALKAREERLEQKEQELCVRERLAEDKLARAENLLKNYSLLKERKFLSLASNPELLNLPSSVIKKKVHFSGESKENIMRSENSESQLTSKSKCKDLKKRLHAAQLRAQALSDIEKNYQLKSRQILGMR
Test: co-IP; ESCC cell lysates (RIPA lysis buffer) incubated with NEK2 or TRIM21 antibody overnight at 4 °C; protein A/G agarose beads 4 h at 4 °C; western blotting; IgG control

binding: binds
Substance: tripartite motif-containing protein 21 (from UniProt P19474 1-475)
